# Test results from publication PMC12708618.
# These are yes or no findings as the source states them, for the method shown. Some binding calls cover weakened binding; strength is not graded here.
# Assays:
# SMARCC1 (human) = SMARCC1 (human) (UniProt Q92922); assay: cross-linking; cross-linking mass spectrometry (XL-MS) of the ncBAF complex, used to confirm the built and AlphaFold3-predicted models; conditions not shown; both purified
# SMARCD1 (human) = SMARCD1 (human) (UniProt Q96GM5); assay: as above
substance,measurement,setting,value
GLTSCR1L (from UniProt Q6AI39 1-1079),binding,SMARCC1 (human),binds
same,binding,SMARCD1 (human),binds
